Experimental data published in paper PMC5063967, “EIN2-dependent regulation of acetylation of histone H3K14 and non-canonical histone H3K23 in ethylene signalling” (Nature Communications, 2016).
No constants are given. Whether binding was seen depends on the method and setting. Some results given as binding are weak or reduced against the parent protein; the word gives no strength. Where a sequence is shown, tags or fusion partners need not be part of it.

Target: T1, EIN2 C-terminal end (from 808 aa through 1294 aa of EIN2), yeast two-hybrid fusion (Arabidopsis) (UniProt Q9S814)
T1 sequence: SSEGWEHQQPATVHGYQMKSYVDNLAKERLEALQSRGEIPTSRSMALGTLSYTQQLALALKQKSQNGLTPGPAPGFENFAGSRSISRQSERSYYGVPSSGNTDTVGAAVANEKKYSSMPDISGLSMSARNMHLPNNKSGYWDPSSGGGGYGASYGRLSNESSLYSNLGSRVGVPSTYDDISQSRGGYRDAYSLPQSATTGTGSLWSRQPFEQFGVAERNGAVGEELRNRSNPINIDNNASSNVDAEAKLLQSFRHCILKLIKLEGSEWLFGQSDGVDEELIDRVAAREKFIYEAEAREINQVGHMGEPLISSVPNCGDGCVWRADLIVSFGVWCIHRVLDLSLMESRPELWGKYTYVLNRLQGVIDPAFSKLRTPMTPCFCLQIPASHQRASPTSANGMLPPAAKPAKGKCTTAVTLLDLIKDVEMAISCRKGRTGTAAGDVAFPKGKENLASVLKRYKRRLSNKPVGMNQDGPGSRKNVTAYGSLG
Assay: two-hybrid; yeast two-hybrid screen with EIN2 CEND (808-1294); growth on -Leu, -Trp, -His with 20 mM 3-AT and an X-Gal filter assay

binding: binds
B1: EIN2 nuclear associated protein 1 (ENAP1), yeast two-hybrid fusion (protein, UniProt Q8VZI9 1-249)
chain: METTPETQSKTHRLPAGREDWWSEDATATLIEAWGDRYVNLNRGNLRQNDWKEVADAVNSSHGNGRPKTDVQCKNRIDTLKKKYKTEKAKPLSNWCFFDRLDFLIGPVMKKSSGAVVKSALMNPNLNPTGSKSTGSSLDDDDDDDDDDEEDDDDAGDWGFVVRKHRKVEDVDSSEGSAFRELARSILKLGEAFERIEGKKQQMMIELEKQRMEVAKELELQRMNMLMEMQLELEKSKLGKRRAASGKKL
